The subject of the assay is CEM cells HIV-1 protection, formazan growth assay. Briefly: NCI AIDS Antiviral Assay. Summed up: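 Human CEM cells, uninfected and HIV-1-infected, exposed to five drug concentrations; growth measured by soluble formazan assay and scored as percent protection from infection, with protecting compounds retested.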

What is called EC50 is the concentration needed to bring the measured effect to its halfway point. Broadly, the IC50 is the point on the concentration scale where inhibition reaches its midpoint.

Turning to `COc1c(O)cc2c(c1OC)-c1ccc(SC)c(=O)cc1C(NC(C)=O)CC2` (configuration not stated), the EC50 is above 6.17 µM. Also, under “measured here: growth of uninfected CEM cells”, the 50% inhibitory concentration (IC50) came to 2 nM.

Values taken from PubChem BioAssay AID179 (DTP/NCI, 2004).
